Data taken from PMC5701058, “Structure of Rap1b bound to talin reveals a pathway for triggering integrin activation” (Nature Communications, 2017).
No constants are given. Whether binding was seen depends on the method and setting. Some binding calls cover weakened binding; strength is not graded here. Values belong to the molecule of their own block, whether it stands above or below them.

Protein sequences, listed by entry. Tags and fused reporters are not part of them. Lines headed by an entry give the natural chain unless they say otherwise; changes in a name come on top. Residues count along the entry.
UniProt Q96AC1, residues 1-105: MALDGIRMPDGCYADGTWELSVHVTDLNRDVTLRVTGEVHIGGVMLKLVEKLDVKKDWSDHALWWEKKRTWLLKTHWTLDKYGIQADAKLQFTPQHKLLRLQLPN
UniProt P61224: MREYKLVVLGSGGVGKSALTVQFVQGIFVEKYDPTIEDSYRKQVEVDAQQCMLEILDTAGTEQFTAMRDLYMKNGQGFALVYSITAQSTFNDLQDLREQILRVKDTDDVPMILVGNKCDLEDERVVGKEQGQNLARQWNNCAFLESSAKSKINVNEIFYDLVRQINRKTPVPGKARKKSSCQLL

Tests used:
[1] = biological target: human kindlin2-F0 (1–105) (human) (UniProt Q96AC1); assay: NMR titration; 2D HSQC of 50 μM 15N-labeled talin-F0 (wild type or DM) or kindlin2-F0 without and with 125 μM unlabeled Rap1b; 25 °C; 20 mM NaH2PO4/Na2HPO4 pH 6.6, 50 mM NaCl, 5 mM MgCl2, 2 mM DTT; both purified
[2] = biological target: mouse talin-F0 (1–86) (mouse) (UniProt P26039); assay: as above
GST-talin-H (mouse) = GST-talin-H (mouse) (UniProt P26039); assay: pull-down; GST-talin-H on glutathione-Sepharose 4B; prey Rap1b free or anchored to LUVs; 4 °C, 25 mM Tris-HCl pH 7.5, 150 mM NaCl, 5 mM MgCl2; Coomassie and western blot; both purified
[3] = biological target: GFP-Rap1b (G12V), loaded with GMP-PNP (human, UniProt P61224 1-184, G12V); assay: MST; 100 nM GFP-Rap1b (G12V) with serial dilutions of the partner; 50 mM Tris-HCl pH 7.5, 100 mM NaCl, 5 mM MgCl2, 2 mM DTT, 0.05% Tween 20; RT; both purified

binding [1]: no binding (tested: 125 μM)
binding [2]: binds weakly
Molecule: Rap1b (G12V), loaded with GMP-PNP (active form) (from UniProt P61224 1-184)

binding (GST-talin-H (mouse)): binds weakly
binding [2]: binds
Molecule: Rap1b_TM2 (G12V, C51S, C118S, C141S), loaded with GMP-PNP, free in solution (from UniProt P61224 1-184)

binding [2]: binds weakly
Molecule: wild-type Rap1b, loaded with GDP-β-S (inactive form) (from UniProt P61224 1-184)

binding [3]: binds weakly
B1: mouse talin-H (1–429) (domain or fragment, UniProt P26039 1-429, looked up)
chain: MVALSLKISIGNVVKTMQFEPSTMVYDACRMIRERIPEALAGPPNDFGLFLSDDDPKKGIWLEAGKALDYYMLRNGDTMEYRKKQRPLKIRMLDGTVKTIMVDDSKTVTDMLMTICARIGITNHDEYSLVRELMEEKKDEGTGTLRKDKTLLRDEKKMEKLKQKLHTDDELNWLDHGRTLREQGVEEHETLLLRRKFFYSDQNVDSRDPVQLNLLYVQARDDILNGSHPVSFDKACEFAGFQCQIQFGPHNEQKHKAGFLDLKDFLPKEYVKQKGERKIFQAHKNCGQMSEIEAKVRYVKLARSLKTYGVSFFLVKEKMKGKNKLVPRLLGITKECVMRVDEKTKEVIQEWSLTNIKRWAASPKSFTLDFGDYQDGYYSVQTTEGEQIAQLIAGYIDIILKKKKSKDHFGLEGDEESTMLEDSVSPKKS
notes: talin (talin-1), mouse, head domain, residues 1-429; Talin-H was cloned into pET28t and into pGST-1; also called talin head domain

binding [3]: binds weakly
B2: mouse talin-F0 (1–86) (domain or fragment, UniProt P26039 1-86, looked up)
chain: MVALSLKISIGNVVKTMQFEPSTMVYDACRMIRERIPEALAGPPNDFGLFLSDDDPKKGIWLEAGKALDYYMLRNGDTMEYRKKQR
notes: talin (talin-1), mouse, F0 domain, residues 1-86; Isotope labelled or unlabelled as the NMR sample needed; also called F0 domain of talin
